Laboratory results: PubChem BioAssay AID1671195 (Yale University, 2021)
In all, the deposit lists about 22,000 reagents; below is a random part of them. About 1,510 of all reagents (6.9%) were called active. 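Active includes knockdowns raising or lowering LDL uptake; positive z-scores mean more uptake, negative mean less.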 Entries without a mark were called inactive.

Test: 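Regulators of LDL receptor activity judged by labelled LDL uptake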 (primary screen)
Cells: human Huh7 hepatoma cells
Knock-down reagent: siRNA pool against human genes, 18 nM
Duration: about 2 to 2.5 days of knockdown, then 8 h LDL uptake
Conditions: DiI-labelled LDL at 30 µg/ml for 8 h, in lipoprotein-deficient serum medium
Measured: 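Fluorescent LDL signal imaged in cells, scaled to the plate median, robust z-score for each replicate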
Direction: robust z-score: higher = more LDL uptake after knockdown
Active means: 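a gene counts as active if at least two replicate z-scores exceed ±2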

What did the screen give for HIGD1A (HIG1 hypoxia inducible domain family member 1A)?
robust z-score, replicate 1: 0.506; robust z-score, replicate 2: 0.48; robust z-score, replicate 3: -0.658

What did the screen give for ZNF516-DT (ZNF516 divergent transcript)?
robust z-score, replicate 1: 2.65 (active); robust z-score, replicate 2: 2.79; robust z-score, replicate 3: 2.24

How did the screen score FAP (fibroblast activation protein alpha)?
robust z-score, replicate 1: -0.947; robust z-score, replicate 2: -0.0605; robust z-score, replicate 3: -0.606

What is on record for NRCAM (neuronal cell adhesion molecule)?
robust z-score, replicate 1: -1.14; robust z-score, replicate 2: -0.286; robust z-score, replicate 3: 0.656

With TLK1 (tousled like kinase 1), what does the deposit list?
robust z-score, replicate 1: -0.461; robust z-score, replicate 2: -1.03; robust z-score, replicate 3: 0.254

What did the screen give for CRSP8P (mediator complex subunit 27 pseudogene)?
robust z-score, replicate 1: -0.285; robust z-score, replicate 2: -0.758; robust z-score, replicate 3: -0.193

For POPDC1 (popeye domain cAMP effector 1), what does the deposit list?
robust z-score, replicate 1: 0.208; robust z-score, replicate 2: -0.71; robust z-score, replicate 3: -1.16

With POU5F1 (POU class 5 homeobox 1), what does the deposit list?
robust z-score, replicate 1: 4.85 (active); robust z-score, replicate 2: 4.21; robust z-score, replicate 3: 4.06

With LOC440870 (retired record), what was measured?
robust z-score, replicate 1: -0.472; robust z-score, replicate 2: -0.758; robust z-score, replicate 3: -0.659

Look-ups from the list:
Value of FAP (fibroblast activation protein alpha) under “robust z-score, replicate 2”: -0.0605
LOC440870 (retired record), robust z-score, replicate 1: -0.472

The listing continues.
What did the screen give for KCNE1?
robust z-score, replicate 1: 0.77; robust z-score, replicate 2: 0.461; robust z-score, replicate 3: 0.85

How did the screen score SLC38A9?
robust z-score, replicate 1: -0.908; robust z-score, replicate 2: 0.536; robust z-score, replicate 3: -0.528

What is on record for COL23A1 (collagen type XXIII alpha 1 chain)?
robust z-score, replicate 1: -0.703; robust z-score, replicate 2: -0.773; robust z-score, replicate 3: -0.656

For NTRK1 (neurotrophic receptor tyrosine kinase 1), what was measured?
robust z-score, replicate 1: -0.771; robust z-score, replicate 2: -0.639; robust z-score, replicate 3: -1.23

What is on record for DAXX (death domain associated protein)?
robust z-score, replicate 1: 0.777; robust z-score, replicate 2: 1.03; robust z-score, replicate 3: 1.06

For AKR1B1 (aldo-keto reductase family 1 member B), how do the results read?
robust z-score, replicate 1: -0.236; robust z-score, replicate 2: 0.148; robust z-score, replicate 3: -0.559

What is on record for SLC41A3?
robust z-score, replicate 1: 2.52 (active); robust z-score, replicate 2: 3.18; robust z-score, replicate 3: 2.15

With MRPS7 (mitochondrial ribosomal protein S7), what was measured?
robust z-score, replicate 1: 0.531; robust z-score, replicate 2: -0.0642; robust z-score, replicate 3: -2.06

What did the screen give for LOC441016 (retired record)?
robust z-score, replicate 1: 4.19 (active); robust z-score, replicate 2: 4.26; robust z-score, replicate 3: 4.16

For ALYREF (Aly/REF export factor), what was measured?
robust z-score, replicate 1: -1.3; robust z-score, replicate 2: -0.9; robust z-score, replicate 3: -0.97

With AK5 (adenylate kinase 5), what does the deposit list?
robust z-score, replicate 1: 0.89; robust z-score, replicate 2: 1.49; robust z-score, replicate 3: 0.564

For F2RL3 (F2R like thrombin or trypsin receptor 3), what does the deposit list?
robust z-score, replicate 1: -1.1; robust z-score, replicate 2: -0.276; robust z-score, replicate 3: -1.18

For LSM2, what was measured?
robust z-score, replicate 1: 0.555; robust z-score, replicate 2: 0.868; robust z-score, replicate 3: 0.677

For PTCHD3 (patched domain containing 3 (gene/pseudogene)), what was measured?
robust z-score, replicate 1: 2.55 (active); robust z-score, replicate 2: 2.86; robust z-score, replicate 3: 1.83

Which result is listed for SLFN11 (schlafen family member 11)?
robust z-score, replicate 1: -0.275; robust z-score, replicate 2: -0.39; robust z-score, replicate 3: -0.792
